This is an account of results in article PMC8206314.

The chains behind the UniProt entries cited, without tags or fusion partners.
UniProt P10415: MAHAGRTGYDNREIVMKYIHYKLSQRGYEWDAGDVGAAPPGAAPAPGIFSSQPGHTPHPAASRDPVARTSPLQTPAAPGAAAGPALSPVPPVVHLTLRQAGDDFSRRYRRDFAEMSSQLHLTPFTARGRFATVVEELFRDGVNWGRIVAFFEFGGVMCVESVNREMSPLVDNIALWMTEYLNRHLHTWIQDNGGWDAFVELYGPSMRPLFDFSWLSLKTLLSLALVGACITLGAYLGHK

These are yes or no findings as the source states them, for the method shown. In cells and extracts the contact can be indirect. Some entries that bind do so weakly or less than the wild type.

In assay [1] the target is BECN1 (endogenous, HEK293T cells) (human (endogenous in HEK293T)) (UniProt Q14457). In words: co-IP; IP of endogenous BECN1 in HEK293T cells, in the absence or presence of IL-6 (20 ng/ml) for 12 h or of CHZ868 (0.2 μM) for 12 h; NP40 cell lysis buffer, western blot. (In western blotting, separated proteins are transferred to a membrane and probed.)
For assay [2] the target is unchanged. Briefly: condition: only cells treated with IL-6 (20 ng/ml) for 12 h; co-IP; IP of endogenous BECN1 in HEK293T cells treated with IL-6 (20 ng/ml) for 12 h; NP40 cell lysis buffer, western blot.
In another assay the target is HA-BECN1 WT (human) (UniProt Q14457). Briefly: co-IP; HEK293T cells expressing HA-BECN1 WT, Y333F or Y333E; endogenous partners detected by western blot; NP40 cell lysis buffer.
The target of another assay is HA-BECN1 Y333E (human) (UniProt Q14457). The assay is described as above.

In the case of BCL-2 (from UniProt P10415 1-239), the binding result in assay [1] is reported as “binds”; in assay [2] it was “no binding”; in the assay with HA-BECN1 WT (human), “binds”; with HA-BECN1 Y333E (human) it was “binds”.
